# Data published in the supplement of paper PMC12067093, “Discovery and optimisation of a covalent ligand for TRIM25 and its application to targeted protein ubiquitination” (Chemical Science, 2025).
# The chains behind the UniProt entries cited, without tags or fusion partners. Where a name states a change or a piece, a line headed by the entry shows the natural chain unless it says otherwise.
# UniProt Q5T011: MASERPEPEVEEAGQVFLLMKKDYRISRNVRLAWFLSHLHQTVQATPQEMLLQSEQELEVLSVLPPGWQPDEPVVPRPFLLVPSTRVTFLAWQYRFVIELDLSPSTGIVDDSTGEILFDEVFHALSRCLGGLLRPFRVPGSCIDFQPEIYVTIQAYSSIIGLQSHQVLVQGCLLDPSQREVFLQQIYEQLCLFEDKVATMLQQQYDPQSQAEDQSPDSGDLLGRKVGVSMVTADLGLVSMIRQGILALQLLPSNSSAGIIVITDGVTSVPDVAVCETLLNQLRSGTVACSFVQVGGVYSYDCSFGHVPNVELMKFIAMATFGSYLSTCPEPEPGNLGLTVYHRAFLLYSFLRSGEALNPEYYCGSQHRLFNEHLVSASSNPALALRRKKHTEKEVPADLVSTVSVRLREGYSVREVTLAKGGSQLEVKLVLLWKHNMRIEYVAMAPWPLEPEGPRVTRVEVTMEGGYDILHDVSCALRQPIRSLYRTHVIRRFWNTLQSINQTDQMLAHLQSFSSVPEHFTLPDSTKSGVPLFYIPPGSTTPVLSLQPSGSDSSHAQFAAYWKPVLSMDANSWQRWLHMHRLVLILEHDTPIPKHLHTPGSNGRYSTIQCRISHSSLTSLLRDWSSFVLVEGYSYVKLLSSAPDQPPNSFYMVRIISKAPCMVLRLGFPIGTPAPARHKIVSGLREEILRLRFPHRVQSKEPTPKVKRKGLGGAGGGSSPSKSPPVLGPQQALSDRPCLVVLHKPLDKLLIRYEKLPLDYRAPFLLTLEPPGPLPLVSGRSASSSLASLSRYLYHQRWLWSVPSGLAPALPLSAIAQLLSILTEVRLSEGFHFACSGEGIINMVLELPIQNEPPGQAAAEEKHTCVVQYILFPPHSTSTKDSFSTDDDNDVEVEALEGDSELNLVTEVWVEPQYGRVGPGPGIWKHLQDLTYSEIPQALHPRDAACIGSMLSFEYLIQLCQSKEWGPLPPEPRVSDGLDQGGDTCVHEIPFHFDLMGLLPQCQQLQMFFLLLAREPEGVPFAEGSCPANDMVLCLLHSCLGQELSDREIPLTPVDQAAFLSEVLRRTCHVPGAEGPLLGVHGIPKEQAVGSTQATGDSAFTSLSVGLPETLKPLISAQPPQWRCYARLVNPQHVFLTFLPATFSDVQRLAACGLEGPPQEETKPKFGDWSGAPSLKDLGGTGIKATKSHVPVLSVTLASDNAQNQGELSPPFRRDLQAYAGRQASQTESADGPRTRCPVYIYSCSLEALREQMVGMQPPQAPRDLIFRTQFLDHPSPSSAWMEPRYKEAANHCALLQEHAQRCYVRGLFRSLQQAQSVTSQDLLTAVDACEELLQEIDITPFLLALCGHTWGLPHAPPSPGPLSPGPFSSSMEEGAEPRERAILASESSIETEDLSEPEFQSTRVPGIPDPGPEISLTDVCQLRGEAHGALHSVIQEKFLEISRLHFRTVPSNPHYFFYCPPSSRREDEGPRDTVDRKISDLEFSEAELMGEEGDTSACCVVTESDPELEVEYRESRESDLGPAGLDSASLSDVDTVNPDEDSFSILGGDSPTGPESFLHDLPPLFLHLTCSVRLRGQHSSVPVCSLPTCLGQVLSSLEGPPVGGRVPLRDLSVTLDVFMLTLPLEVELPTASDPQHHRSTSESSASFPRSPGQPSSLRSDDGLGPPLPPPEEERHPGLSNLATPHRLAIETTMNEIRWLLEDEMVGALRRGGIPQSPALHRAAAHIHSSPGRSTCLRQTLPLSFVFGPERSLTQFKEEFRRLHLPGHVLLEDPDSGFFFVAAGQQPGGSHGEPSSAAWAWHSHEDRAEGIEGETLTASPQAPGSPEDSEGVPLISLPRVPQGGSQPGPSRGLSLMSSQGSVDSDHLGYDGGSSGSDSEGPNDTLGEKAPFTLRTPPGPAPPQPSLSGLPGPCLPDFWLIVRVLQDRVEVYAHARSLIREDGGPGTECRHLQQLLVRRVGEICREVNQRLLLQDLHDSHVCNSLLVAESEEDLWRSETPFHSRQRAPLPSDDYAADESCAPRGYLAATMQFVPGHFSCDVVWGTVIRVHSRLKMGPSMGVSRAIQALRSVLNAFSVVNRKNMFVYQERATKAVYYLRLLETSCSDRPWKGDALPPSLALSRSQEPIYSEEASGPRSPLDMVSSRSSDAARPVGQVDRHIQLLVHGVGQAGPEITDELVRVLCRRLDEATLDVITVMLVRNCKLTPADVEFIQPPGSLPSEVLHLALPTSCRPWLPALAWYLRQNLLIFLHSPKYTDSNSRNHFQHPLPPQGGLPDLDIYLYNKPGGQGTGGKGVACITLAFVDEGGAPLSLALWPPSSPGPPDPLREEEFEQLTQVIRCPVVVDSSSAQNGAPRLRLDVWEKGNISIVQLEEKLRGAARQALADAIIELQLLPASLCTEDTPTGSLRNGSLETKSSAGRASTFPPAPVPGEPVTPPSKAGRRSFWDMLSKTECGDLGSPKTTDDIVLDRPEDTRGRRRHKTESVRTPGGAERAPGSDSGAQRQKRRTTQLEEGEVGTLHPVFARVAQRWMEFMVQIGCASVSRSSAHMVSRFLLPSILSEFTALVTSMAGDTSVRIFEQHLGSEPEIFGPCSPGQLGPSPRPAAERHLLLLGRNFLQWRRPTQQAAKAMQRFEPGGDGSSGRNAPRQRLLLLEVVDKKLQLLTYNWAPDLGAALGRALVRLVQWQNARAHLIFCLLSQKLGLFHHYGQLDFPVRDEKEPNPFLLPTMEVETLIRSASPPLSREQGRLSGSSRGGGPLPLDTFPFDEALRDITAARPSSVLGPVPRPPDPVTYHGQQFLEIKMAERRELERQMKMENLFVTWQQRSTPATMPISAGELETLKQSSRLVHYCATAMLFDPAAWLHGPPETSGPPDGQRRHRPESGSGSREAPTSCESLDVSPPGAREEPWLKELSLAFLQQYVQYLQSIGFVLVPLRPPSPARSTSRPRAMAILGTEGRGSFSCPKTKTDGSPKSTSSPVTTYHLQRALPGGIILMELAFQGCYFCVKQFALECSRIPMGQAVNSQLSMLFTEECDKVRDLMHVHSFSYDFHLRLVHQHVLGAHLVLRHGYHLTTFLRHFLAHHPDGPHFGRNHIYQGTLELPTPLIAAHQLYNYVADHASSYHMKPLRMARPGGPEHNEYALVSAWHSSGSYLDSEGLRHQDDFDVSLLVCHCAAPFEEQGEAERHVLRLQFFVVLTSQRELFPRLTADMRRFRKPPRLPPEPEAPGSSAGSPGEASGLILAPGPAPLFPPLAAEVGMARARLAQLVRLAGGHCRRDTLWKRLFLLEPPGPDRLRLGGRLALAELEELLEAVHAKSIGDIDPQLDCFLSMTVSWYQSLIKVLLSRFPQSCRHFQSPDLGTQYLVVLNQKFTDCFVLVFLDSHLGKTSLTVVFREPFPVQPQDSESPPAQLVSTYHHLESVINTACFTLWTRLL
# UniProt Q13395: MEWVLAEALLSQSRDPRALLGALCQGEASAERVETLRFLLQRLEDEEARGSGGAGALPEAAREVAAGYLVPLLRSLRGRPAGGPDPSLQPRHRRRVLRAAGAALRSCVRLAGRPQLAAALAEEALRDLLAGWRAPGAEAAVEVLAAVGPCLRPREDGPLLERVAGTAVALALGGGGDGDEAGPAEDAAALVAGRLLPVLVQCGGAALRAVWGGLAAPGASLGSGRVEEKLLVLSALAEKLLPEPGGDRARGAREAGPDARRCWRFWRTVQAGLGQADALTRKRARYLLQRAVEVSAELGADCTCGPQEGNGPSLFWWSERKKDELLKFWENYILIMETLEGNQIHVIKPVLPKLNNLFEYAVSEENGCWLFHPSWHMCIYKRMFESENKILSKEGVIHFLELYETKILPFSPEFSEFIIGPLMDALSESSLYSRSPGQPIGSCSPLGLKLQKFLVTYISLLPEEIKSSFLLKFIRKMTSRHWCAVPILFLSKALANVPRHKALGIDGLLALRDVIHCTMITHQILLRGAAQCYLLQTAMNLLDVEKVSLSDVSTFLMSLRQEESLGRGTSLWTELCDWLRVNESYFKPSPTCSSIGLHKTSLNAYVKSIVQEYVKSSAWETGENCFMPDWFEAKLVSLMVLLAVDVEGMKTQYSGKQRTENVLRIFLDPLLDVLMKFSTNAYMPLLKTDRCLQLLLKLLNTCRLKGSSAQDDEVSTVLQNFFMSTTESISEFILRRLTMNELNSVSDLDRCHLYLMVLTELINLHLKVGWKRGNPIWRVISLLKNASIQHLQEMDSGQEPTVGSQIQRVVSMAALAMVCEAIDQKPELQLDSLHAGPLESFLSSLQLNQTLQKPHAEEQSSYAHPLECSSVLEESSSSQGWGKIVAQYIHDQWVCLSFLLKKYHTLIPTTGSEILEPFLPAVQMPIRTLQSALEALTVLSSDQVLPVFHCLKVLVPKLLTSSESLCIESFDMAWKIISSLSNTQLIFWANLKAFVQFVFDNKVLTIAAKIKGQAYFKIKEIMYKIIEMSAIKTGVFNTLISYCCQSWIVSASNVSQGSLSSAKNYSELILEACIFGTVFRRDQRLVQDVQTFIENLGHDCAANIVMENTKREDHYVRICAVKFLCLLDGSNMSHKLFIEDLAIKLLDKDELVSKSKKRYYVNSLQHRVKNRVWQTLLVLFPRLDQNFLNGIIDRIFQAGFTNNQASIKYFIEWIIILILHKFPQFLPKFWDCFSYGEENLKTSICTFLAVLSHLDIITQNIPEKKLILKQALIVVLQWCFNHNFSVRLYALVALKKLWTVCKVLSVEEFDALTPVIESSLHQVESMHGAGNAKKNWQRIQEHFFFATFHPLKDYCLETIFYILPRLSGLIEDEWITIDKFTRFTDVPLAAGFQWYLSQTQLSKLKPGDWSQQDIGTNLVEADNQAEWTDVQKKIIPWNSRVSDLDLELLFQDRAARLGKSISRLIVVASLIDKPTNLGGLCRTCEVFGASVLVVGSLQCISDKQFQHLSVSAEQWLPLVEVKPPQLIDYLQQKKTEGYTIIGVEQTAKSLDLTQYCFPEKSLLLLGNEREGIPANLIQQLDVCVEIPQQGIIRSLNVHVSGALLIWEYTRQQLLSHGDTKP
# UniProt Q8TEA7: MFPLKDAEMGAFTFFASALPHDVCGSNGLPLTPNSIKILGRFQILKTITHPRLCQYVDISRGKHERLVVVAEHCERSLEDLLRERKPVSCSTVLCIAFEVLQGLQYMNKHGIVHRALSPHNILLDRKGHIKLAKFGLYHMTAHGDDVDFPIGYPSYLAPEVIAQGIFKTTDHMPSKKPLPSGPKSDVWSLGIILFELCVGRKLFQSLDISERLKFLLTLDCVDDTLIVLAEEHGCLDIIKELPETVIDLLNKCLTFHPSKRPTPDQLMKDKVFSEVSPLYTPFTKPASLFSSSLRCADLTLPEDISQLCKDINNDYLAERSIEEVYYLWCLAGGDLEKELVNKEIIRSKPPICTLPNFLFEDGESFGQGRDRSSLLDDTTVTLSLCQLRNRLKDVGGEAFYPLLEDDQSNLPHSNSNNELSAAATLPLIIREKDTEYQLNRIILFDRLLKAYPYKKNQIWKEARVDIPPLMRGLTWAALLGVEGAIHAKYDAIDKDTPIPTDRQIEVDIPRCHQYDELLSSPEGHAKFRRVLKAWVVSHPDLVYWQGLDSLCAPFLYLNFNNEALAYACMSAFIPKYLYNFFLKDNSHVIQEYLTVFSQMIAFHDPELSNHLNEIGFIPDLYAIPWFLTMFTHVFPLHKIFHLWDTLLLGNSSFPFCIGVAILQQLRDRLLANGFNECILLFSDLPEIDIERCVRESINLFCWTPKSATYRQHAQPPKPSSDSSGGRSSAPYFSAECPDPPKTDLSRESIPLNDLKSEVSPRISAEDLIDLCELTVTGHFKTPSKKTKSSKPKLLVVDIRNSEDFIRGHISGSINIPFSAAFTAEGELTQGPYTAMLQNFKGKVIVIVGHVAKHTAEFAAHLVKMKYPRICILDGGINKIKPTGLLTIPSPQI
# UniProt Q86TM6, whole entry, looked up: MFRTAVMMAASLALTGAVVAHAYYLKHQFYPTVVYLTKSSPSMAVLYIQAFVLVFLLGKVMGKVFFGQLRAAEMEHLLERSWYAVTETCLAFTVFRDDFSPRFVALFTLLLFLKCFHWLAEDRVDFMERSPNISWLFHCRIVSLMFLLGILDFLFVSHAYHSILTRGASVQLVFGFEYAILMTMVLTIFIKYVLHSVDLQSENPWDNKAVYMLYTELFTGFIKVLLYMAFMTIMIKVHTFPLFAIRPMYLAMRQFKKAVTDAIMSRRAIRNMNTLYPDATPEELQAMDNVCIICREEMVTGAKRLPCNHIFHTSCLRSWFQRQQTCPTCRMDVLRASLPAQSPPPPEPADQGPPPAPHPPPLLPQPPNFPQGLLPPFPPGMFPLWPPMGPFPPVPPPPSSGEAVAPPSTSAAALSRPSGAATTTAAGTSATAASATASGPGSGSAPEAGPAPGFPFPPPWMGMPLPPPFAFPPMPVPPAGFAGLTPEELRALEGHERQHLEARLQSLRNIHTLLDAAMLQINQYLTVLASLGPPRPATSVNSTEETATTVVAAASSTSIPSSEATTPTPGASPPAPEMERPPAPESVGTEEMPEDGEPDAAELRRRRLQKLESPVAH
# The list shows a part of the results.
# Compound: Cc1cc(ccc1-c1ccccc1)C(=O)N1CCCN(CC1)C(=O)CCl [compound 10]
# Test: probe-labelled cysteine peptide fold change vs DMSO (competition) (log2 fold change); higher = less target engagement (more negative = stronger competition)
# Details: THP-1, incubation time: 4 h
# 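Also: competitive profiling in live THP-1 cells: cysteine peptides tagged with an iodoacetamide desthiobiotin (IA-DTB) probe, intensity after compound treatment relative to DMSO-treated cells.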
Target,probe-labelled cysteine peptide fold change (10 µM),probe-labelled cysteine peptide fold change (50 µM)
TAPBPL_Q9BX59_283_DASLTLPGLTIQDEGTYICQITTSLYR (UniProt Q9BX59),0.289,0.503
SZT2_Q5T011_2339_CPVVVDSSSAQNGAPR (UniProt Q5T011),-0.0902,-0.0826
TADA3_O75528_255_KSEAQHEQPEDGCPFGALTQR (UniProt O75528),-0.119,-0.378
TARBP1_Q13395_1556_SLDLTQYCFPEK (UniProt Q13395),0.0901,-0.197
TACC3_Q9Y6A5_662_CEELHGK (UniProt Q9Y6A5),0.104,-0.0309
TCEA1_P23193_294_SADEPMTTFVVCNECGNR (UniProt P23193),0.0781,0.149
TAP2_Q03519_362_EALEQCR (UniProt Q03519),-0.138,-0.0808
TBL2_Q9Y4P3_391_FLASCGDR (UniProt Q9Y4P3),-0.0331,0.114
SZT2_Q5T011_2019_APLPSDDYAADESCAPR (UniProt Q5T011),-0.457,-0.0896
TANGO6_Q9C0B7_375_DICPQVLDLFHFQDK (UniProt Q9C0B7),-0.36,-0.218
TBC1D13_Q9NVG8_145_ATDYPCLLILDPQNEFETLR (UniProt Q9NVG8),-0.0238,0.373
TANC1_Q9C0D5_1808_CQIPVHSQENR (UniProt Q9C0D5),-0.0397,0.45
TBCK_Q8TEA7_74_LVVVAEHCER (UniProt Q8TEA7),0.166,0.672
SYVN1_Q86TM6_307_RLPCNHIFHTSCLR (UniProt Q86TM6),0.169,0.0514

# A different layout for some results above.
Target | probe-labelled cysteine peptide fold change (10 µM) | probe-labelled cysteine peptide fold change (50 µM)
TANC1_Q9C0D5_1808_CQIPVHSQENR (UniProt Q9C0D5) | -0.0397 | 0.45
TBCK_Q8TEA7_74_LVVVAEHCER (UniProt Q8TEA7) | 0.166 | 0.672
SYVN1_Q86TM6_307_RLPCNHIFHTSCLR (UniProt Q86TM6) | 0.169 | 0.0514
